Laboratory results as given in patent US8637237B2, “Methods, compositions, and systems for the identification of species-specific or developmental stage-specific insecticides” (The University of North Carolina at Greensboro, priority 2003, dated 2014).
At least one compound was matched to its structure with a doubt left.

Legend:
Format in all cases: cell-based
EcRB2/RXR = target: T1, EcRB2/RXR (Drosophila melanogaster, UniProt P34021); experiment: EcRB2 isoform with RXR, reporter in CHO cells; conditions: 0.1 μM murA
T1 construct: The plasmid encodes a version of EcRB2 that includes 669 amino acids, and deletes the F domain; expressed in transfected cells; host or cells: CHO
T1 sequence (P34021 1-669 isoform P34021-3): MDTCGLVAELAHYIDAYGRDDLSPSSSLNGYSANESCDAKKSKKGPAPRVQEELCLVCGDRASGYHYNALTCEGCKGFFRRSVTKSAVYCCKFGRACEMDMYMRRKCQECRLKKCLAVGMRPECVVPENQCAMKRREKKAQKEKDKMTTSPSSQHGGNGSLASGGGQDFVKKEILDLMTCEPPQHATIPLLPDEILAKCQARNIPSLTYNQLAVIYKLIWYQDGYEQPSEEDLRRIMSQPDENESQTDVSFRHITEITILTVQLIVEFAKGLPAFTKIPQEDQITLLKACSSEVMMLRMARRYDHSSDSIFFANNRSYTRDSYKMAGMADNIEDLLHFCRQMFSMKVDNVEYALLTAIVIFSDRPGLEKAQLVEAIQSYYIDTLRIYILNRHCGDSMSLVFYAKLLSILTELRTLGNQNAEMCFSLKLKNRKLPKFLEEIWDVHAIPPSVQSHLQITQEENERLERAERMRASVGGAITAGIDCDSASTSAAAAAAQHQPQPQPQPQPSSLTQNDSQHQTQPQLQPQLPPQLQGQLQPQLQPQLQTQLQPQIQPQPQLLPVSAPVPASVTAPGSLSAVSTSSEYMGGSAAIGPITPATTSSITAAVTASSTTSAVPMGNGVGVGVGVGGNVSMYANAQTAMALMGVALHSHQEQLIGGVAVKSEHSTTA

EcRA/RXR = target: T2, EcRA/RXR (Drosophila melanogaster, UniProt P34021); experiment: EcRA isoform with RXR, reporter in CHO cells; conditions: 0.1 μM murA
T2 construct: The plasmid encodes a version of EcRA that includes 849 amino acids, and deletes the F domain; expressed in transfected cells; host or cells: CHO
T2 sequence (P34021 1-849 isoform P34021-2): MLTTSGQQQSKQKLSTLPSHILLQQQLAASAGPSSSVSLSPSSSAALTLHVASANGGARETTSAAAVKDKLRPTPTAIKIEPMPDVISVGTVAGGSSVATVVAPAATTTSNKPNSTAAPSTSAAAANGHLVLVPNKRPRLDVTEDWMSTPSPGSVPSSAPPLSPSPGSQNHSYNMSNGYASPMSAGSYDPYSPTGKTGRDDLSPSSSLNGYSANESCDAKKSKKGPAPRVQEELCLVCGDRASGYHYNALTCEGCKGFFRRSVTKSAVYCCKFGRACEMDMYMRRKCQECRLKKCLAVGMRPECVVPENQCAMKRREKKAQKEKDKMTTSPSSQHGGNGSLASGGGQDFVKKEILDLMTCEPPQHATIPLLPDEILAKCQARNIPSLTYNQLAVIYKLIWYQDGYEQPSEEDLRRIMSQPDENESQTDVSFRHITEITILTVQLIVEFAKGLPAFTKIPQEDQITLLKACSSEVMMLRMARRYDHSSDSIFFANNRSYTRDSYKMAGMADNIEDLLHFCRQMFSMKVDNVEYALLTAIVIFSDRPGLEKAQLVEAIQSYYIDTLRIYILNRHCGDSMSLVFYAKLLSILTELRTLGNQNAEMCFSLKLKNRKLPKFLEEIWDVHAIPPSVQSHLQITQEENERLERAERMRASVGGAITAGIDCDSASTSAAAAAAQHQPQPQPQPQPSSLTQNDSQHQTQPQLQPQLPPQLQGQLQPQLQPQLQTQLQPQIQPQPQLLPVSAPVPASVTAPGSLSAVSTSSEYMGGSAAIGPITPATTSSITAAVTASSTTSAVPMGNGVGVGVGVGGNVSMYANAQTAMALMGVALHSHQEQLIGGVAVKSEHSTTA

GRdEcR/RXR = target: T3, GRdEcR/RXR (Drosophila melanogaster, UniProt P34021); experiment: GRdEcR (GEcEc) chimera with RXR, (EcRE)5-ΔMTV reporter in CHO cells; conditions: 5 μM; 10 nM MUR
T3 construct: ligation of a Not I-Bam HI fragment containing the DBD and LBD of a modified EcR cDNA, EcRnx; expressed in transfected cells; host or cells: CHO
T3 sequence (P34021 259-878 V259R/Q260P/E261P/P331L limits assumed): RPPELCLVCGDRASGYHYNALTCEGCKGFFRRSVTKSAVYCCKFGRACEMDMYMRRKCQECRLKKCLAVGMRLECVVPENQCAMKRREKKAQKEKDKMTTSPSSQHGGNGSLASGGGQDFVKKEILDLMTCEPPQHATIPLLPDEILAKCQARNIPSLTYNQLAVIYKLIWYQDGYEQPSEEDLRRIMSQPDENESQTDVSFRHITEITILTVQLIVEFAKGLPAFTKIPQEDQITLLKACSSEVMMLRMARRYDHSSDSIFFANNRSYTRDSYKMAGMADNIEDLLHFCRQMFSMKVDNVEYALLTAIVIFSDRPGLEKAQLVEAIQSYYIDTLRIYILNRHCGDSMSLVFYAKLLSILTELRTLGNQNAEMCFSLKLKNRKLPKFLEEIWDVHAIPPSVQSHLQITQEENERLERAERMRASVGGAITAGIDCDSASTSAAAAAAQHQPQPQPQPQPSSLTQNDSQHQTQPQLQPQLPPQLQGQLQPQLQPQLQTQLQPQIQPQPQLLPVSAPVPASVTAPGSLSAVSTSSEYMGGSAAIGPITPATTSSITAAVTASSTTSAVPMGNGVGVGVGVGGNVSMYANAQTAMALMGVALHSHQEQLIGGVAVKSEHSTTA
T3 sequence (P28700 1-467 partner): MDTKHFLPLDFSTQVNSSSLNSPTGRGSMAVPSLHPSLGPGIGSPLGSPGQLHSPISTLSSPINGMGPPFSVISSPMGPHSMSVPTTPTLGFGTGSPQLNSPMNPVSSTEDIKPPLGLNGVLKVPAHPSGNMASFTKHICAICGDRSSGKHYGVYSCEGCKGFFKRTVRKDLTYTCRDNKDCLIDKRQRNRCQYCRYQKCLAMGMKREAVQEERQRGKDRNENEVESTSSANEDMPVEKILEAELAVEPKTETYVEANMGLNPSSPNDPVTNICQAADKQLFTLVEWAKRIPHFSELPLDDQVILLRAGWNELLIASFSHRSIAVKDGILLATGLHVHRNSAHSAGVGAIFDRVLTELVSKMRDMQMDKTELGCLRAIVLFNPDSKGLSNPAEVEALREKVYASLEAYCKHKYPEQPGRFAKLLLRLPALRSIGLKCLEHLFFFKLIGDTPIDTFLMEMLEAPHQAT
Experimental: These experiments employed a mammalian cell culture system using Chinese hamster ovary cells (CHO) to evaluate the transcriptional function of Drosophila melanogaster EcR and USP using methods described previously (U.S. Patent Application Publication No: 2005/0049230; Henrich et al, 2003). Cells were seeded in 6-well polypropylene culture plates (Falcon) with 10^5 cells per well on the day prior to transfection. Transfection was subsequently performed using either calcium phosphate (Kitareewan et al., 1996, Mol. Biol. Cell, 7:1153-1196) or a GenePorter reagent (Gene Therapy Systems, Inc; San Diego, Calif.) following manufacturer's protocols. Each well received 1.25 μg of (EcRE)5-ΔMTV-CAT (five copies of the hsp27 EcRE inserted into an mouse mammary tumor virus (MTV) promoter upstream of the chloramphenicol acetyltransferase (CAT) gene) or (EcRE)5-ΔMTV-LUC (the same promoter attached to firefly luciferase), 1.25 μg of pCH111 (SV40 early promoter linked to the β-galactosidase gene) to normalize CAT activity, and 0.25 μg of each expression plasmid (EcR, FXR, RXR, USP) that was tested. […] Both β-galactosidase and CAT reporter activity were measured based on previously used methods (Kitareewan et al, 1996). […]
Transcriptional activity, measured as ^14C-chloramphenicol counts (for measuring CAT activity) or relative luciferase activity (RLU) was quantified for each cell lysate. […]

SMILES | MurA (inducibility) (EcRB2/RXR) | MurA (inducibility) (EcRA/RXR) | GEcEc-dependent activity, insecticide plus MUR over MUR alone (GRdEcR/RXR)
CC(C)CC[C@@H](O)[C@](C)(O)[C@H]1CC[C@@]2(O)C3=CC(=O)[C@]4(O)C[C@@H](O)[C@@H](O)C[C@]4(C)[C@H]3[C@H](O)C[C@]12C [murA, muristerone A] | − | − | 
O=S1OCC2C(CO1)C1(Cl)C(Cl)=C(Cl)C2(Cl)C1(Cl)Cl (stereo not drawn) [endosulfan] |  |  | between two and three times
